Source: article PMC8882779

T1: BD-ZmTE1 (TERMINAL EAR 1, bait in pGBKT7) (maize) (UniProt O65001)
T1 sequence: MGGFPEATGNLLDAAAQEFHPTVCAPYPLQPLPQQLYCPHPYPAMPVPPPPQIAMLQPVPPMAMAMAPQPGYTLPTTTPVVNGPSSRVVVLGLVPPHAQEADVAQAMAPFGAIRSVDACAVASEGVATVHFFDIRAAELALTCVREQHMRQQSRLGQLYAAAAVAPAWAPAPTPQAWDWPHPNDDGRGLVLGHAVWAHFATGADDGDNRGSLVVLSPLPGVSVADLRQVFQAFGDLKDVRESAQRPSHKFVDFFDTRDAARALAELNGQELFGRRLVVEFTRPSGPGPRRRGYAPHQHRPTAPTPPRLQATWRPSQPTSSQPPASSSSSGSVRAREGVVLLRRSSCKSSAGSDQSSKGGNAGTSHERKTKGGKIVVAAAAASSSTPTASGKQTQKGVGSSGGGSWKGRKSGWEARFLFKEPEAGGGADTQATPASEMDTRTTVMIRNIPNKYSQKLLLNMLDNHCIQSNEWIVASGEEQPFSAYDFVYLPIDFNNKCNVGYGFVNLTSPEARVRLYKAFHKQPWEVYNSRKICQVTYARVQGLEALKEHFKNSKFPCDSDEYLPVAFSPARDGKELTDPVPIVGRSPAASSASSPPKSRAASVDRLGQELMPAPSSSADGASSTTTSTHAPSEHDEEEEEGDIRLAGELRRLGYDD

T2: ZmTE1-Myc (35S::ZmTE1-Myc) (maize) (UniProt O65001)
T2 sequence: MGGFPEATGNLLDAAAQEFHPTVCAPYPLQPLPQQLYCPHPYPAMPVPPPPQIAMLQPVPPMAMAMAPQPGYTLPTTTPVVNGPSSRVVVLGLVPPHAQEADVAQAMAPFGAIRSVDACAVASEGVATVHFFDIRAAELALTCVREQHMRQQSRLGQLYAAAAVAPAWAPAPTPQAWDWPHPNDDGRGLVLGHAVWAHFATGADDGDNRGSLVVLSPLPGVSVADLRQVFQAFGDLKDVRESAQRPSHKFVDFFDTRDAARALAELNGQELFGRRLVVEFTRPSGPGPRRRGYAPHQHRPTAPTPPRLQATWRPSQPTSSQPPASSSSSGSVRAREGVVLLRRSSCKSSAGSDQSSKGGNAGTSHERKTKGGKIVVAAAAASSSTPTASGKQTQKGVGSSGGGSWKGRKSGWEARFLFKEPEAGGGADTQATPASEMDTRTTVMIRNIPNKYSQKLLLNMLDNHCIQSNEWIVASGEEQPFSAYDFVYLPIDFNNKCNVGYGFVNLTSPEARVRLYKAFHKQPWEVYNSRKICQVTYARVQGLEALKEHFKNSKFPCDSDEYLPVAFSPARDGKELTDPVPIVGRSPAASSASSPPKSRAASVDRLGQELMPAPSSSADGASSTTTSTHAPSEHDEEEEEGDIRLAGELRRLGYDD


Experiments:
[1] = biological target: T1, BD-ZmTE1 (TERMINAL EAR 1, bait in pGBKT7) (maize); assay: two-hybrid; Matchmaker GAL4 Two-Hybrid System 3; ZmTE1 in pGBKT7 (BD) as bait to screen a maize cDNA library, candidates re-cloned in pGADT7 (AD); yeast Y2HGold; growth on SD -LWH and -LWAH
[2] = biological target: T2, ZmTE1-Myc (35S::ZmTE1-Myc) (maize); assay: co-IP; Myc- and YFP-tagged proteins transiently expressed in Arabidopsis mesophyll cells; lysate (10 mM Tris-HCl pH 7.5, 150 mM NaCl, 0.5 mM EDTA, 0.5% NP-40) on MYC-Trap magnetic agarose beads, 4 °C, 2 h; blots with anti-MYC and anti-GFP
[3] = biological target: ZmPP2Ac-2-Myc (35S::ZmPP2Ac-2-Myc) (maize); assay: as above

binding [1]	Molecule	other results
binds	AD-ZmARF32 (prey in pGADT7) (maize)	
binds	AD-ZmPP2Ac-2 (prey in pGADT7) (maize) (enzyme)	
	ZmWEE1-YFP (35S::ZmWEE1-YFP) (maize) (enzyme)	binding [2]: binds
binds	AD-ZmMBR1 (prey in pGADT7) (maize)	
binds	AD-ZmWEE1 (prey in pGADT7) (maize) (enzyme)	
	ZmTE1-YFP (35S::ZmTE1-YFP) (protein, UniProt O65001 1-656) MGGFPEATGNLLDAAAQEFHPTVCAPYPLQPLPQQLYCPHPYPAMPVPPPPQIAMLQPVPPMAMAMAPQPGYTLPTTTPVVNGPSSRVVVLGLVPPHAQEADVAQAMAPFGAIRSVDACAVASEGVATVHFFDIRAAELALTCVREQHMRQQSRLGQLYAAAAVAPAWAPAPTPQAWDWPHPNDDGRGLVLGHAVWAHFATGADDGDNRGSLVVLSPLPGVSVADLRQVFQAFGDLKDVRESAQRPSHKFVDFFDTRDAARALAELNGQELFGRRLVVEFTRPSGPGPRRRGYAPHQHRPTAPTPPRLQATWRPSQPTSSQPPASSSSSGSVRAREGVVLLRRSSCKSSAGSDQSSKGGNAGTSHERKTKGGKIVVAAAAASSSTPTASGKQTQKGVGSSGGGSWKGRKSGWEARFLFKEPEAGGGADTQATPASEMDTRTTVMIRNIPNKYSQKLLLNMLDNHCIQSNEWIVASGEEQPFSAYDFVYLPIDFNNKCNVGYGFVNLTSPEARVRLYKAFHKQPWEVYNSRKICQVTYARVQGLEALKEHFKNSKFPCDSDEYLPVAFSPARDGKELTDPVPIVGRSPAASSASSPPKSRAASVDRLGQELMPAPSSSADGASSTTTSTHAPSEHDEEEEEGDIRLAGELRRLGYDD	binding [3]: binds

Results are given in words; binding and its absence hold for the method and conditions named. A result given as binding can be weak or reduced; the word gives no strength. Where a sequence is shown, tags or fusion partners need not be part of it. For part of these data: Binding seen in cells or lysates may run through a third protein.
